# Source: PubChem BioAssay AID2685 (National Center for Advancing Translational Sciences (NCATS), 2010)
# Some of the results follow. Shown are side measurements of this screen, not its main read-out; they come without a call. The list favours compounds with an active or inconclusive main result. The note in brackets gives the kind of curve behind each potency; many fits are weak.
# Assay: qHTS Assay for Lipid Storage Modulators in Drosophila S3 Cells;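 as to cell number change: cells counted by Cell Tracker Red CMTPX staining in the red channel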
# Details: BODIPY lipid droplet fluorescence, 18-24 h; for cell number change: measured here: cell count max response, cells fed with added oleic acid
# Procedure, shortened: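 Drosophila S3 cells loaded with oleic acid (400 uM, as added) and compounds at several concentrations; lipid droplets imaged by 488-nm laser-scanning cytometry, 500–530 nm intensity and object ratio to cell channel. Percent activity normalized to 20 uM Triacsin C.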
# [1] = measured here: cell number channel AC50, cells fed with added oleic acid
# [2] = measured here: lipid fluorescence (Fed channel) AC50, cells fed with added oleic acid
compound,measurement,setting,value
COc1ccc(NC(=O)CC2C(=O)N(c3ccc(Cl)cc3)C(=S)N2CCc2ccccn2)cc1 (centres undefined),cell number change,,-38.7%
same,AC50,[1],"29.1 µM [falling, single point]"
Cc1cccn2cc(-c3ccc(F)cc3)nc12,cell number change,,-4.95%
same,AC50,[2],"29.1 µM [rising, single point]"
CC(=O)NCCc1ccc(S(=O)(=O)Nc2cccnc2)cc1,cell number change,,-62.8%
same,AC50,[1],"29.1 µM [falling, single point]"
same,AC50,[2],"29.1 µM [falling, single point]"
CCOC(=O)N1CCN(S(=O)(=O)c2ccc3c(c2)CC(C)N3C(C)=O)CC1 (centres undefined),cell number change,,20.2%
CC(C)c1cc(C(F)(F)F)n2nc(C(=O)O)cc2n1,cell number change,,-5.7%
same,AC50,[1],"4.11 µM [falling, partial curve]"
same,AC50,[2],"23.1 µM [falling, partial curve]"
CC(C)OP(=O)(OC(C)C)C(O)c1ccc(N(C)C)cc1 (centres undefined),cell number change,,-23.5%
same,AC50,[1],"2.06 µM [rising, partial curve]"
same,AC50,[2],"14.6 µM [falling, single point]"
O=C(Nc1ccon1)c1cccc(S(=O)(=O)N2CCCCCC2)c1,AC50,[2],"0.58 µM [falling, single point]"
Cc1ccc(C(=O)C2=C(O)C(=O)N(c3ncccn3)C2c2cccc(Cl)c2)o1 (centres undefined),cell number change,,1.79%
COc1ccc(N(CC(=O)Nc2ccc(C)cn2)S(=O)(=O)c2c(C)nn(C)c2C)cc1,cell number change,,40.5%
same,AC50,[1],"13 µM [rising, partial curve, poor fit]"
same,AC50,[2],"29.1 µM [rising, partial curve, poor fit]"
O=S(=O)(/N=C(\c1ccc(Cl)cc1)N1CCOCC1)c1ccccc1,cell number change,,-44.5%
same,AC50,[1],"2.31 µM [falling, full curve]"
same,AC50,[2],"18.4 µM [falling, partial curve]"
Cc1ccc(C)c(S(=O)(=O)N2CCN(C(=O)CN3C(=O)NC(C)(C)C3=O)CC2)c1,cell number change,,33.5%
same,AC50,[1],"11.6 µM [rising, single point]"
COC(=O)c1ccc(-c2ccc(CNCC(O)c3ccccc3)o2)cc1 (centres undefined),cell number change,,64.6%
same,AC50,[1],"9.2 µM [rising, partial curve, poor fit]"
same,AC50,[2],"8.2 µM [rising, partial curve]"
CN(C)C(CNC1CC(C)(C)NC(C)(C)C1)c1cccc(F)c1 (centres undefined),cell number change,,-3.48%
same,AC50,[2],"1.46 µM [falling, partial curve]"
O=C1c2cccc3c(N4CCCCC4)ccc(c23)C(=O)N1c1ccc(O)cc1,cell number change,,-96.3%
same,AC50,[1],"0.291 µM [falling, partial curve]"
same,AC50,[2],"0.058 µM [falling, full curve]"
N#Cc1ccccc1NC(=O)c1ccc2c(c1)OCCO2,cell number change,,-3.95%
COc1ccc(N=C2SCC(=O)N2c2ccc(OC)cc2)cc1,cell number change,,46.1%
same,AC50,[1],"23.1 µM [rising, single point]"
same,AC50,[2],"1.16 µM [rising, full curve, poor fit]"
O=C(COC(=O)c1cc(-c2cccc3ccccc23)nc2ccccc12)NC1CCS(=O)(=O)C1 (centres undefined),cell number change,,4.2%
same,AC50,[2],"0.326 µM [rising, full curve, poor fit]"
COc1ccc(C(CC(=O)Nc2cc(OC)cc(OC)c2)n2cccc2)cc1 (centres undefined),cell number change,,0.475%
O=C(Nc1ccc(Cl)cc1)c1nc[nH]c1C(=O)N1CCc2ccccc2C1,cell number change,,-30.1%
same,AC50,[1],"29.1 µM [falling, single point]"
same,AC50,[2],"0.366 µM [falling, single point]"
COc1cccc2c1OC1(C)CC2/C(=C(\C)O)C(=O)N1 (centres undefined),cell number change,,0.891%
same,AC50,[2],"6.51 µM [rising, partial curve]"
COc1ccc2[nH]c(C)c(CCNc3ccc(C(F)(F)F)cc3[N+](=O)[O-])c2c1,cell number change,,-20.1%
same,AC50,[2],"14.6 µM [falling, single point]"
Cc1ccc2nc(-c3cccnc3)cc(C(=O)N3CCN(c4ccc([N+](=O)[O-])cc4)CC3)c2c1,AC50,[2],"13 µM [falling, partial curve, poor fit]"
O=C(Nc1ccc2ccccc2c1)c1ccccc1F,cell number change,,-6.35%
same,AC50,[2],"29.1 µM [rising, single point]"
CN(C(=O)CSc1nnc2ccccn12)C1CCS(=O)(=O)C1 (centres undefined),cell number change,,-52.6%
same,AC50,[1],"1.3 µM [falling, full curve]"
same,AC50,[2],"16.4 µM [falling, partial curve]"
CC(C)=CCCC1=CCC(/C(C)=N/NC(N)=O)CC1 (centres undefined),cell number change,,-25.5%
same,AC50,[1],"1.16 µM [falling, full curve, poor fit]"
same,AC50,[2],"2.06 µM [falling, partial curve]"
O=C(NCc1ccco1)c1ccc(=O)oc1,cell number change,,-6.1%
same,AC50,[2],"0.259 µM [falling, full curve]"
COc1cc([N+](=O)[O-])ccc1NC(=O)C[n+]1cccc(C)c1,cell number change,,-18.2%
same,AC50,[2],"0.259 µM [falling, full curve]"

# Reformatted bar-delimited: part of the list above
compound | measurement | setting | value
O=S(=O)(/N=C(\c1ccc(Cl)cc1)N1CCOCC1)c1ccccc1 | AC50 | [1] | 2.31 µM [falling, full curve]
same | AC50 | [2] | 18.4 µM [falling, partial curve]
Cc1ccc(C)c(S(=O)(=O)N2CCN(C(=O)CN3C(=O)NC(C)(C)C3=O)CC2)c1 | cell number change |  | 33.5%
same | AC50 | [1] | 11.6 µM [rising, single point]
